Data from PubChem BioAssay AID248 (DTP/NCI, 2004).
The list does not hold the whole screen: its compounds were picked by chemical class. Not every dose and run of a compound is shown. T/C is the treated group as % of the vehicle group. For survival time, this PubChem deposit counts one and a half times the control or more as active, and values a quarter to a half above the control carry no call in these data; other NCI protocols may use other cut-offs. Some T/C values are marked as having no survivor count here; that says nothing about deaths at the dose. Schedules are NCI's codes, taken here to give the interval after Q, in days (D) or hours (H), and the number of doses after X. Some entries were tested several times; the values are given in rising order. Signs of the kind (2×) give the number of equal values in this list. Some schedules carry Z or #; the key to these is not given.

System: L1210 leukemia ip in BDF1 mice, survival T/C
Assay: NCI In Vivo Anticancer Drug Screen. Data for tumor model L1210 Leukemia (intraperitoneal) in B6D2F1 (BDF1) mice
Conditions: T/C endpoint: mean survival time, higher T/C = longer survival
[1] = dose: 100.0 mg/kg/injection, schedule: Q04DX002 (ip), vehicle: Klucel (hydroxypropylcellulose) (HPC)
[2] = dose: 200.0 mg/kg/injection, schedule: Q04DX002 (ip), vehicle: Klucel (hydroxypropylcellulose) (HPC)
[3] = dose: 400.0 mg/kg/injection, schedule: Q04DX002 (ip), vehicle: Klucel (hydroxypropylcellulose) (HPC)

Structure (SMILES): COc1cccc(N(CCCl)CCCl)c1OC
- T/C (dose: 12.0 mg/kg/injection, schedule: Q01DX Z (ip), vehicle: carboxymethylcellulose (CMC)): 112 % of control [survivor count not shown]
- T/C (dose: 15.0 mg/kg/injection, schedule: Q01DX Z (oral), vehicle: methylcellulose (MC)): 88 % of control [survivor count not shown]
- T/C (dose: 24.0 mg/kg/injection, schedule: Q01DX Z (ip), vehicle: carboxymethylcellulose (CMC)): 106 % of control [survivor count not shown]
- T/C (dose: 30.0 mg/kg/injection, schedule: Q01DX Z (oral), vehicle: methylcellulose (MC)): 94 % of control [survivor count not shown]
- T/C (dose: 36.0 mg/kg/injection, schedule: Q01DX Z (ip), vehicle: carboxymethylcellulose (CMC)): 104 % of control [survivor count not shown]
- T/C (dose: 54.0 mg/kg/injection, schedule: Q01DX Z (ip), vehicle: carboxymethylcellulose (CMC)): 114 % of control [survivor count not shown]
- T/C (dose: 60.0 mg/kg/injection, schedule: Q01DX Z (oral), vehicle: methylcellulose (MC)): 97 % of control [survivor count not shown]
- T/C (dose: 80.0 mg/kg/injection, schedule: Q01DX Z (ip), vehicle: carboxymethylcellulose (CMC)): 124 % of control [survivor count not shown]
- T/C (dose: 120.0 mg/kg/injection, schedule: Q01DX Z (oral), vehicle: methylcellulose (MC)): 93 % of control [survivor count not shown]

Structure (SMILES): COc1cc(CN(CCCl)CCBr)cc(OC)c1
- T/C (dose: 3.12 mg/kg/injection, schedule: Q01DX009 (ip), vehicle: Klucel (hydroxypropylcellulose) (HPC)): 113 % of control [survivor count not shown]
- T/C (dose: 6.25 mg/kg/injection, schedule: Q01DX009 (ip), vehicle: Klucel (hydroxypropylcellulose) (HPC)): 97 % of control [survivor count not shown]

Structure (SMILES): CN(C)P(=O)(Cl)N(C)C
- T/C (dose: 12.5 mg/kg/injection, schedule: Q04DX003 (ip), vehicle: saline): 106 % of control [survivor count not shown]
- T/C (dose: 25.0 mg/kg/injection, schedule: Q04DX003 (ip), vehicle: saline): 107 % of control [survivor count not shown]
- T/C (dose: 50.0 mg/kg/injection, schedule: Q04DX003 (ip), vehicle: saline): 96 % of control [survivor count not shown]

Structure (SMILES): ClCC[N+]1(CCCl)CCCCC1
- T/C (dose: 12.5 mg/kg/injection, schedule: Q01DX001 (ip), vehicle: saline): 111 % of control [survivor count not shown]
- T/C (dose: 25.0 mg/kg/injection, schedule: Q01DX001 (ip), vehicle: saline): 100 % of control [survivor count not shown]
- T/C (dose: 50.0 mg/kg/injection, schedule: Q01DX001 (ip), vehicle: saline): 97 % of control [survivor count not shown]

Structure (SMILES): NNP(=S)(NN)c1ccccc1
- T/C [1]: 107 [survivor count not shown] and 124 % of control [survivor count not shown]
- T/C [2]: 113 [survivor count not shown] and 118 % of control [survivor count not shown]
- T/C [3]: 129 % of control [survivor count not shown]

Structure (SMILES): Cc1nc2ccccc2c(=O)n1N(CCCl)CCCl
- T/C (dose: 100.0 mg/kg/injection, schedule: Q01DX001 (ip), vehicle: saline): 100 % of control [survivor count not shown]

Structure (SMILES): CCCCC1(N(CCCl)CCCl)C(=O)NC(=O)NC1=O
- T/C (dose: 50.0 mg/kg/injection, schedule: Q04DX002 (ip), vehicle: saline): 117 % of control [survivor count not shown]
- T/C (dose: 100.0 mg/kg/injection, schedule: Q04DX002 (ip), vehicle: saline): 104 [survivor count not shown] and 132 % of control [survivor count not shown]
- T/C (dose: 200.0 mg/kg/injection, schedule: Q04DX002 (ip), vehicle: saline): 111 [survivor count not shown] and 127 % of control [survivor count not shown]
- T/C (dose: 400.0 mg/kg/injection, schedule: Q04DX002 (ip), vehicle: saline): 104 [survivor count not shown] and 139 % of control [survivor count not shown]

Structure (SMILES): CCC1(N(CCCl)CCCl)C(=O)NC(=O)NC1=O
- T/C (dose: 50.0 mg/kg/injection, schedule: Q04DX002 (ip), vehicle: Klucel (hydroxypropylcellulose) (HPC)): 107 % of control [survivor count not shown]
- T/C [1]: 94 [survivor count not shown], 107 [survivor count not shown], 132 % of control [survivor count not shown]
- T/C [2]: 115 [survivor count not shown] and 132 % of control [survivor count not shown] (2×)
- T/C [3]: 102 [survivor count not shown], 109 [survivor count not shown], 114 % of control [survivor count not shown]
